PubChem BioAssay AID1671195 – Yale University, 2021
Purpose: 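Knockdowns that increase or decrease uptake of fluorescent LDL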 (primary screen). System: human Huh7 hepatoma cells. Knock-down reagent: siRNA pool against human genes, 18 nM. Timing: about 2 to 2.5 days of knockdown, then 8 h LDL uptake. Challenge: DiI-labelled LDL at 30 µg/ml for 8 h, in lipoprotein-deficient serum medium. Measured: 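Fluorescent LDL signal imaged in cells, scaled to the plate median, robust z-score for each replicate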. Scale: robust z-score: higher = more LDL uptake after knockdown. Rule for the call: 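Active when two or more replicates show a robust z-score above 2 or below -2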.
The deposit covers about 22,000 reagents; shown is a part drawn at random. Of all reagents, about 1,510 (6.9%) got an active call. 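Active includes knockdowns raising or lowering LDL uptake; positive z-scores mean more uptake, negative mean less.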

gene knocked down | robust z-score, replicate 1 | robust z-score, replicate 2 | robust z-score, replicate 3 | Call
CYB5R3 | -1.63 | -0.939 | -1.67 | inactive
F5 | 1.93 | 2.12 | 2.26 | active
MOV10L1 | -0.797 | 0.0295 | 0.0392 | inactive
PLAT | 1.07 | 1.4 | 1.52 | inactive
UBN2 | -0.279 | 0.064 | -0.4 | inactive
LOC388819 (retired record) | 0.608 | 0.944 | 0.748 | inactive
SACK1B | -1.06 | -1.19 | -0.837 | inactive
LOC285770 (retired record) | -0.341 | -0.177 | -0.228 | inactive
LOC342600 (retired record) | -0.879 | -1.06 | -1.12 | inactive
USH1C | 3.48 | 1.81 | 3.08 | active
OR1C1 | -1.74 | -2.98 | -1.94 | active
S100A13 | -0.399 | -0.238 | -0.542 | inactive
FAM169A | -1.05 | -0.145 | 0.828 | inactive
SPOPL | 2.85 | 2.38 | 2.37 | active
AANAT | -0.303 | -0.848 | -0.797 | inactive
STAG3L4 | -0.655 | -1.03 | -0.812 | inactive
GPR137B | 2.31 | 1.6 | 2.62 | active
CCDC172 | 0.113 | -0.505 | -0.381 | inactive
TEKTL1 | 0.877 | 1.87 | 1.43 | inactive
ATP10D | -0.291 | -0.731 | -0.735 | inactive
MYL6P5 | 2.4 | 0.989 | 1.34 | inactive
ADD1 | -0.101 | -0.545 | -0.886 | inactive
NALCN | -1.76 | -1.09 | -1.64 | inactive
TEX44 | 3.03 | 1.95 | 2.22 | active
GDPD1 | -0.00633 | 0.161 | -0.00361 | inactive
C19orf53 | -1.29 | 0.663 | 0.728 | inactive
R3HDM1 | -0.362 | -0.714 | -0.128 | inactive
PITPNM3 | -0.991 | -0.719 | -0.778 | inactive
CBL | -0.871 | -0.912 | -0.929 | inactive
LIN28B | -0.103 | 0.943 | -0.605 | inactive
SPACA7 | -0.784 | -0.934 | -0.88 | inactive
APOBEC3B | 0.0115 | -0.799 | -0.478 | inactive
PRRT1 | 0.491 | 0.359 | 0.327 | inactive
ZC3H7A | -0.175 | -1.24 | 0.036 | inactive
PDGFC | 1.65 | 2.5 | 0.903 | inactive
NKX6-3 | -0.12 | 0.369 | -0.273 | inactive
SCN10A | 0.196 | -0.0626 | 0.527 | inactive
DVL2 | 2.46 | 0.214 | 2.08 | inactive
PSKH1 | 0.87 | 0.352 | 0.654 | inactive
ELAPOR1 | 4.32 | 6.02 | 3.01 | active
FLVCR1 | 0.238 | -0.336 | 0.478 | inactive
VWC2L | -0.57 | 0.194 | -0.616 | inactive
S100A6 | -1.12 | 0.434 | -0.0944 | inactive
LOC440958 (retired record) | -0.0434 | -0.667 | -0.4 | inactive
MSX2 | 0.00763 | -0.0798 | 0.155 | inactive
DUSP8 | -0.242 | -0.201 | 0.232 | inactive
ARRB2 | -0.095 | 0.285 | -0.569 | inactive
SLC27A2 | -1.01 | -0.57 | -0.551 | inactive
CDC20 | 1.35 | 0.793 | 1.34 | inactive
MCFD2 | 1.06 | 0.734 | 0.91 | inactive
RIOK1 | -0.513 | -0.755 | -0.626 | inactive
FAM111B | 0.36 | 0.965 | 0.374 | inactive
COL9A2 | 0.16 | 0.00954 | 0.185 | inactive
BRICD5 | 0.541 | -0.0989 | -0.0478 | inactive
UNC50 | 1.68 | -0.491 | 0.924 | inactive
BEAN1 | 0.256 | 0.115 | 0.0394 | inactive
MRPL24 | -0.221 | -0.556 | 0.0494 | inactive
C5orf15 | 0.46 | 0.827 | 0.69 | inactive
ZNF222 | -0.531 | -0.357 | -0.656 | inactive
LUZP4 | 0.81 | 1.19 | 1.38 | inactive
NXPE3 | -0.135 | -1.13 | -0.699 | inactive
LOC400865 (retired record) | -1.88 | -1.9 | -1.67 | inactive
NUS1 | -0.937 | -0.765 | -0.507 | inactive
GPAT2 | 0.0278 | 0.0846 | -0.976 | inactive
LOC121792 (retired record) | -0.596 | -1 | -0.519 | inactive
GRIA4 | -0.364 | 0.179 | 0.119 | inactive
FUT7 | 0.535 | -0.367 | -0.438 | inactive
ZCRB1 | -0.298 | -0.56 | -0.101 | inactive
